The target of assay [1] is G434-P548-His6 recombinant peptide of BFSP1 (human) (UniProt Q12934). Description: self-association; electron microscopy with negative staining, SEC.
In assay [2] the target is Myr-G434-P548-His6 fragment of BFSP1 (human) (UniProt Q12934). The description is as above.

No constants are given. Whether binding was seen depends on the method and setting. Some entries that bind do so weakly or less than the wild type. For some assays here: Tags and fused reporters may be left off the sequences shown.

For “G434-P548-His6 recombinant peptide of BFSP1 (from UniProt Q12934 434-548)”, the binding entry in assay [1] is on record as “binds”.

B1: Myr-G434-P548-His6 fragment of BFSP1 (protein)
chain: GGQISKGFGKLYRKVKEKVRSPKEPETPTELYTKERHVLVTGDANYVDPRFYVSSITAKGGVAVSVAEDSVLYDGQVEPSPESPKPPLENGQVGLQEKEDGQPIDQQPIDKEIEPHHHHHH
As to B1, the binding result in assay [2] was “binds”.

The values above are taken from patent US20260034206A1.
